These are yes or no findings as the source states them, for the method shown. Sequences can lack the tags named with a protein.
B1: BinA protoxin (pro-A), His-tagged (protein, UniProt P06575 7-370)
chain: IDSFIPTEGKYIRVMDFYNSEYPFCIHAPSAPNGDIMTEICSRENNQYFIFFPTDDGRVIIANRHNGSVFTGEATSVVSDIYTGSPLQFFREVKRTMATYYLAIQNPESATDVRALEPHSHELPSRLYYTNNIENNSNILISNKEQIYLTLPSLPENEQYPKTPVLSGIDDIGPNQSEKSIIGSTLIPCIMVSDFISLGERMKTTPYYYVKHTQYWQSMWSALFPPGSKETKTEKSGITDTSQISMTDGINVSIGADFGLRFGNKTFGIKGGFTYDTKTQITNTSQLLIETTYTREYTNTENFPVRYTGYVLASEFTLHRSDGTQVNTIPWVALNDNYTTIARYPHFASEPLLGNTKIITDDQN

Protein sequences, listed by entry. Tags and fused reporters are not part of them.
UniProt P10565: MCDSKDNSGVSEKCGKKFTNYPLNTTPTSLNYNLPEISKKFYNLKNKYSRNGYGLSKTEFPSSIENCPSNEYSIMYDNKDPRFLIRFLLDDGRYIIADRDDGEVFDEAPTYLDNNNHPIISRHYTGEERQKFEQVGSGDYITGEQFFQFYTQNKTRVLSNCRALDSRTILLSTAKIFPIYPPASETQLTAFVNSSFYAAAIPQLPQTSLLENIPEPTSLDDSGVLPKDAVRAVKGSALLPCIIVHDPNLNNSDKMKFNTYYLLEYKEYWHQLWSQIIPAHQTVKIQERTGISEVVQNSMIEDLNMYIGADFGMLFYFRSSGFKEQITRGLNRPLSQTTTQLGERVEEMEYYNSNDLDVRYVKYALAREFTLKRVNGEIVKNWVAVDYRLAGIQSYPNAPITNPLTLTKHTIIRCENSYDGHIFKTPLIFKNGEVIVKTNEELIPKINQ

What was measured:
[1] = target: BinB protoxin (pro-B), His-tagged (Lysinibacillus sphaericus) (UniProt P10565); assay: static light scattering (SLS); Zetasizer Nano-ZS, 25°C, Debye plot, 0.05 to 1.2 mg/mL, 50 mM Tris-HCl pH 9.0, 50 mM NaCl, 1 mM DTT; both purified
[2] = target: BinB protoxin (pro-B), His-tagged (Lysinibacillus sphaericus) (UniProt P10565); assay: dynamic light scattering (DLS); Zetasizer Nano-ZS, 25°C, particle size distribution by number, 50 mM Tris-HCl pH 9.0, 50 mM NaCl, 1 mM DTT; both purified
[3] = target: BinB protoxin (pro-B), His-tagged (Lysinibacillus sphaericus) (UniProt P10565); assay: condition: 60 μM before and 18 μM after chromatography (total monomer); SEC; Superdex 200 HR 10/30, 50 mM Tris-HCl pH 9.0, 50 mM NaCl, 1 mM DTT; subunits alone or mixed 1:1, incubated 15 min at room temperature; typically 60 μM before and 18 μM after chromatography (total monomer); eluted band checked by SDS-PAGE and MALDI-TOF; both purified
[4] = target: BinA protoxin (pro-A), His-tagged (Lysinibacillus sphaericus) (UniProt P06575); assay: static light scattering (SLS); Zetasizer Nano-ZS, 25°C, Debye plot, 0.05 to 1.2 mg/mL, 50 mM Tris-HCl pH 9.0, 50 mM NaCl, 1 mM DTT; both purified
[5] = target: BinA protoxin (pro-A), His-tagged (Lysinibacillus sphaericus) (UniProt P06575); assay: dynamic light scattering (DLS); Zetasizer Nano-ZS, 25°C, particle size distribution by number, 50 mM Tris-HCl pH 9.0, 50 mM NaCl, 1 mM DTT; both purified
[6] = target: BinA protoxin (pro-A), His-tagged (Lysinibacillus sphaericus) (UniProt P06575); assay: condition: 60 μM before and 18 μM after chromatography (total monomer); SEC; Superdex 200 HR 10/30, 50 mM Tris-HCl pH 9.0, 50 mM NaCl, 1 mM DTT; subunits alone or mixed 1:1, incubated 15 min at room temperature; typically 60 μM before and 18 μM after chromatography (total monomer); eluted band checked by SDS-PAGE and MALDI-TOF; both purified

Molecule | binding [1] | binding [2] | binding [3] | binding [4] | binding [5] | binding [6]
BinB protoxin (pro-B), His-tagged (from UniProt P10565 1-448) | no binding (tested: 0.05 to 1.2 mg/mL) | no binding | no binding |  |  | 
B1 | no binding (tested: 0.05 to 1.2 mg/mL) | no binding | no binding | no binding (tested: 0.05 to 1.2 mg/mL) | no binding | no binding

From PMC4920411, “Binary Toxin Subunits of Lysinibacillus sphaericus Are Monomeric and Form Heterodimers after In Vitro Activation” (PLoS ONE, 2016)
